Laboratory results as given in the supplement of paper PMC7661543.
The effect of the compound repeats well; differences between the knockouts mostly do not.

Test system: MDA-MB-231
Test: relative cell number vs DMSO control (72 h) (% of DMSO); higher = less growth inhibition (more cells)
Experimental: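 QMAP-Seq: a pool of 5 breast cancer cell lines (ZR-75-1, SKBR3, HCC-38, MDA-MB-231, BT-20), each carrying 12 doxycycline-inducible Cas9 sgRNA perturbations (11 knockouts plus non-targeting sgNT), was treated with compounds for 72 h at four 10-fold doses (10 nM-10 uM or 1 nM-1 uM range). Barcodes were amplified and sequenced, and cell number was interpolated from 293T spike-in standard curves. The result is expressed as % of the median of DMSO wells. Two biological replicates.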

Cc1ccc(F)c(NC(=O)Nc2ccc(-c3cccc4[nH]nc(N)c34)cc2)c1 [Linifanib]
Settings	relative cell number
sgRNA knockout: sgATF3, 10 nM	82.5
sgRNA knockout: sgATF3, 100 nM	137
sgRNA knockout: sgATF3, 1000 nM	92.2
sgRNA knockout: sgATF3, 10000 nM	20.1
sgRNA knockout: sgATF4, 10 nM	69.7
sgRNA knockout: sgATF4, 100 nM	164.5
sgRNA knockout: sgATF4, 1000 nM	96.7
sgRNA knockout: sgATF4, 10000 nM	25
sgRNA knockout: sgATF6, 10 nM	87.7
sgRNA knockout: sgATF6, 100 nM	98.1
sgRNA knockout: sgATF6, 1000 nM	113
sgRNA knockout: sgATF6, 10000 nM	17.2
sgRNA knockout: sgATG7, 10 nM	79.7
sgRNA knockout: sgATG7, 100 nM	92.8
sgRNA knockout: sgATG7, 1000 nM	87
sgRNA knockout: sgATG7, 10000 nM	17.1
sgRNA knockout: sgERN1, 10 nM	93.7
sgRNA knockout: sgERN1, 100 nM	99.5
sgRNA knockout: sgERN1, 1000 nM	98.4
sgRNA knockout: sgERN1, 10000 nM	19.6
sgRNA knockout: sgHSF1, 10 nM	77.2
sgRNA knockout: sgHSF1, 100 nM	99.7
sgRNA knockout: sgHSF1, 1000 nM	87.1
sgRNA knockout: sgHSF1, 10000 nM	19.3
sgRNA knockout: sgHSF2, 10 nM	87.1
sgRNA knockout: sgHSF2, 100 nM	104
sgRNA knockout: sgHSF2, 1000 nM	106
sgRNA knockout: sgHSF2, 10000 nM	13.9
sgRNA knockout: sgKEAP1, 10 nM	85.3
sgRNA knockout: sgKEAP1, 100 nM	89
sgRNA knockout: sgKEAP1, 1000 nM	108
sgRNA knockout: sgKEAP1, 10000 nM	23.1
sgRNA knockout: sgNFE2L2, 10 nM	76.4
sgRNA knockout: sgNFE2L2, 100 nM	109
sgRNA knockout: sgNFE2L2, 1000 nM	113
sgRNA knockout: sgNFE2L2, 10000 nM	18
sgRNA knockout: sgSLC35F2, 10 nM	87.5
sgRNA knockout: sgSLC35F2, 100 nM	101
sgRNA knockout: sgSLC35F2, 1000 nM	104
sgRNA knockout: sgSLC35F2, 10000 nM	18.3
sgRNA knockout: sgXBP1, 10 nM	74.3
sgRNA knockout: sgXBP1, 100 nM	97.2
sgRNA knockout: sgXBP1, 1000 nM	95.3
sgRNA knockout: sgXBP1, 10000 nM	16.7

C=C1C(=O)O[C@H]2[C@H]1CC/C(C)=C/CC[C@@]1(C)O[C@@H]21 [Parthenolide]
Settings	relative cell number
sgRNA knockout: sgATF3, 10 nM	116
sgRNA knockout: sgATF3, 100 nM	95.1
sgRNA knockout: sgATF3, 1000 nM	117
sgRNA knockout: sgATF3, 10000 nM	97.7
sgRNA knockout: sgATF4, 10 nM	118
sgRNA knockout: sgATF4, 100 nM	85.2
sgRNA knockout: sgATF4, 1000 nM	91.4
sgRNA knockout: sgATF4, 10000 nM	104
sgRNA knockout: sgATF6, 10 nM	124
sgRNA knockout: sgATF6, 100 nM	95.6
sgRNA knockout: sgATF6, 1000 nM	92.3
sgRNA knockout: sgATF6, 10000 nM	131
sgRNA knockout: sgATG7, 10 nM	123
sgRNA knockout: sgATG7, 100 nM	109
sgRNA knockout: sgATG7, 1000 nM	93.1
sgRNA knockout: sgATG7, 10000 nM	103
sgRNA knockout: sgERN1, 10 nM	133
sgRNA knockout: sgERN1, 100 nM	86.9
sgRNA knockout: sgERN1, 1000 nM	116
sgRNA knockout: sgERN1, 10000 nM	108
sgRNA knockout: sgHSF1, 10 nM	104
sgRNA knockout: sgHSF1, 100 nM	126
sgRNA knockout: sgHSF1, 1000 nM	111
sgRNA knockout: sgHSF1, 10000 nM	99.6
sgRNA knockout: sgHSF2, 10 nM	127
sgRNA knockout: sgHSF2, 100 nM	104
sgRNA knockout: sgHSF2, 1000 nM	119
sgRNA knockout: sgHSF2, 10000 nM	81.2
sgRNA knockout: sgKEAP1, 10 nM	124
sgRNA knockout: sgKEAP1, 100 nM	147
sgRNA knockout: sgKEAP1, 1000 nM	101
sgRNA knockout: sgKEAP1, 10000 nM	116
sgRNA knockout: sgNFE2L2, 10 nM	106
sgRNA knockout: sgNFE2L2, 100 nM	102
sgRNA knockout: sgNFE2L2, 1000 nM	124
sgRNA knockout: sgNFE2L2, 10000 nM	81.2
sgRNA knockout: sgSLC35F2, 10 nM	106.2
sgRNA knockout: sgSLC35F2, 100 nM	99.1
sgRNA knockout: sgSLC35F2, 1000 nM	95.6
sgRNA knockout: sgSLC35F2, 10000 nM	110
sgRNA knockout: sgXBP1, 10 nM	101
sgRNA knockout: sgXBP1, 100 nM	105
sgRNA knockout: sgXBP1, 1000 nM	96.4
sgRNA knockout: sgXBP1, 10000 nM	83.9

C[C@@]1(C(=O)Nc2ccc(F)nc2)CCCN1c1nc(Nc2cc(C3CC3)n[nH]2)c2cccn2n1
Settings	relative cell number
sgRNA knockout: sgATF3, 10 nM	103
sgRNA knockout: sgATF3, 100 nM	82.4
sgRNA knockout: sgATF3, 1000 nM	61.1
sgRNA knockout: sgATF3, 10000 nM	25.9
sgRNA knockout: sgATF4, 10 nM	93.1
sgRNA knockout: sgATF4, 100 nM	75.6
sgRNA knockout: sgATF4, 1000 nM	51.6
sgRNA knockout: sgATF4, 10000 nM	41
sgRNA knockout: sgATF6, 10 nM	119
sgRNA knockout: sgATF6, 100 nM	76.1
sgRNA knockout: sgATF6, 1000 nM	54.2
sgRNA knockout: sgATF6, 10000 nM	25.8
sgRNA knockout: sgATG7, 10 nM	87.5
sgRNA knockout: sgATG7, 100 nM	77.5
sgRNA knockout: sgATG7, 1000 nM	57.2
sgRNA knockout: sgATG7, 10000 nM	25.6
sgRNA knockout: sgERN1, 10 nM	78.3
sgRNA knockout: sgERN1, 100 nM	68.9
sgRNA knockout: sgERN1, 1000 nM	65.8
sgRNA knockout: sgERN1, 10000 nM	29.5
sgRNA knockout: sgHSF1, 10 nM	83.4
sgRNA knockout: sgHSF1, 100 nM	71.1
sgRNA knockout: sgHSF1, 1000 nM	53.9
sgRNA knockout: sgHSF1, 10000 nM	38.1
sgRNA knockout: sgHSF2, 10 nM	84.2
sgRNA knockout: sgHSF2, 100 nM	73.1
sgRNA knockout: sgHSF2, 1000 nM	59.7
sgRNA knockout: sgHSF2, 10000 nM	27.8
sgRNA knockout: sgKEAP1, 10 nM	102
sgRNA knockout: sgKEAP1, 100 nM	75.4
sgRNA knockout: sgKEAP1, 1000 nM	63.4
sgRNA knockout: sgKEAP1, 10000 nM	32.3
sgRNA knockout: sgNFE2L2, 10 nM	79.3
sgRNA knockout: sgNFE2L2, 100 nM	90.5
sgRNA knockout: sgNFE2L2, 1000 nM	61.2
sgRNA knockout: sgNFE2L2, 10000 nM	27.1
sgRNA knockout: sgSLC35F2, 10 nM	92
sgRNA knockout: sgSLC35F2, 100 nM	61.7
sgRNA knockout: sgSLC35F2, 1000 nM	73
sgRNA knockout: sgSLC35F2, 10000 nM	25.3
sgRNA knockout: sgXBP1, 10 nM	103
sgRNA knockout: sgXBP1, 100 nM	93.5
sgRNA knockout: sgXBP1, 1000 nM	58.4
sgRNA knockout: sgXBP1, 10000 nM	31.1
